At least one structure is not confirmed: it was looked up by name or label, or the drawing left a doubt. Some entries share one result that the patent states for a list of compounds. Some compounds share one range, which may span the group rather than tell each member.
Experiments:
GST-Pin1 = GST-Pin1 (Homo sapiens, UniProt Q13526); assay: Fluorescence polarization pTide competition assay (FP-HTS / FP assay); conditions: for Relative inhibition of Pin1 (relative to ATRA): FP assay
human APL NB4 cells = assay: Immunoblot of Pin1 and PML-RARα in APL NB4 cells; type: cell-based; conditions: 72 hours
NB4 cells = assay: APL cell differentiation (Giemsa staining, FACS with CD14 and CD11b); type: cell-based, human; conditions: 72 hours
From the text: The latter result could be attributed to the stabilization of RAR protein upon Pin1 KD.

Chains of the proteins cited; added tags and fusions are not shown.
UniProt Q13526, whole entry: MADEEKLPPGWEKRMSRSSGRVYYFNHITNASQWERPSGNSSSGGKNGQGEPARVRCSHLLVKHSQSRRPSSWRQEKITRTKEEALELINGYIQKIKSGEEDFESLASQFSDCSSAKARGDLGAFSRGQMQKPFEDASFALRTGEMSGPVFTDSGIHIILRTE

## CC1=C(/C=C/C(C)=C/C=C/C(C)=C/C(=O)Nc2ccc(O)cc2)C(C)(C)CCC1 [fenretinide]
GST-Pin1
  Relative inhibition of Pin1 (relative to ATRA): 25-64%

## CC[C@H](C)C(=O)O[C@H]1C[C@H](O)C=C2C=C[C@H](C)[C@H](CC[C@@H](O)C[C@@H](O)CC(=O)O)[C@H]21 [pravastatin]
GST-Pin1
  Pin1 binding in the FP assay: neither pravastatin nor indo-3-acetic acid demonstrated any binding

## CC1(C)CCC(C)(C)c2cc(NC(=O)c3ccc(C(=O)O)cc3)ccc21 [tamibarotene]
GST-Pin1
  Relative inhibition of Pin1 (relative to ATRA): 25-64%

## O=C1C=CC(=O)c2c(O)cccc21 [Juglone]
Human APL NB4 cells; APL cells
  PML-RARα level: dose-dependently reduced PML-RARα
Human APL NB4 cells; NB4 cells
  Pin1 degradation: inhibited Pin1 without degrading it
NB4 cells
  APL cell differentiation: neither Pin1 inhibitors nor Pin1 KD induced APL cell differentiation

## C=C(c1ccc(C(=O)O)cc1)c1cc2c(cc1C)C(C)(C)CCC2(C)C [bexarotene]
GST-Pin1
  Relative inhibition of Pin1 (relative to ATRA): 25-64%

— US10548864B2, “Enhanced ATRA-related compounds for the treatment of proliferative diseases, autoimmune diseases, and addiction conditions” (Beth Israel Deaconess Medical Center, Inc., priority 2015, dated 2020)
